Assay type in all cases: cell-based, human
For data set [1], the system named is heparan sulfate (10E4 epitope). As to the kind of experiment: Colocalization of NT4 with anti-HS antibody clone 10E4, confocal immunofluorescence. As to conditions: MDA-MB-231.
The next data set deals with caveolin. The data set can be described thus: Colocalization of NT4 with anti-caveolin antibody. As to conditions: MDA-MB-231.
Another data set deals with clathrin. The data set can be described thus: Colocalization of NT4 with anti-clathrin antibody. The note with it: MDA-MB-231, 30 min incubation.
In data set [2] the test system is macropinocytosis in MDA-MB-231 cells. The data set can be described thus: Colocalization of NT4 with rhodamine-labelled dextran (macropinocytosis). The note with it: n = 10.
A further data set relates to EEA1. The data set can be described thus: Colocalization of NT4 with EEA1. The note with it: MDA-MB-231.
A further data set has as its system Rab7. The data set can be described thus: Colocalization of NT4 with Rab7. The note with it: MDA-MB-231.
In another data set the test system is Rab11. As to the kind of experiment: Colocalization of NT4 with Rab11. As to conditions: MDA-MB-231, 1 h incubation.

The results in this text go back to PMC7663799, “Endocytosis and Trafficking of Heparan Sulfate Proteoglycans in Triple-Negative Breast Cancer Cells Unraveled with a Polycationic Peptide” (International Journal of Molecular Sciences, 2020).

For (pyELYENKPRRPYIL)4K2K-beta-Ala [NT4], in data set [1] (three experiments and three randomly taken fields), the “mean Pearson correlation of NT4 with anti-HS antibody 10E4” value is recorded as 0.6561 (±0.03). Further, the “overlap rate of NT4 with anti-HS antibody 10E4” value in data set [1] (±4.41%, n = 9, three experiments, three random fields) turned out to be 71%. Also, the “colocalization of NT4 with caveolin” value in the data set with caveolin (after 1 h incubation at 37 °C) is “below 30%”. In addition, the “Pearson coefficient of NT4 with caveolin” value in the data set with caveolin (first 30 min at 37 °C, n = 12) is 0.4976 (±0.08). In the data set with caveolin (first 30 min at 37 °C, ±12.03%, n = 12), the “colocalization rate of NT4 with caveolin” value worked out at 38%. Further, the “colocalization rate of NT4 with clathrin” value with clathrin (n = 9) came to 28%. In the data set with clathrin (±0.1, n = 9), the “Pearson coefficient of NT4 with clathrin” value is given as 0.4051. In addition, the “colocalization of NT4 with dextran” value in data set [2] (5 mg/mL Rhodamine B isothiocyanate-Dextran, ±8.31%) was determined as 26.44%. For the same substance, the “Pearson coefficient of NT4 with dextran” value in data set [2] (rhodamine-labelled dextran) is 0.5339 (±0.11). Moreover, in the data set with EEA1 (n = 14, SD ± 0.0050), the “Pearson coefficient of NT4 with EEA1” value was determined as 0.4801. For the same substance, the “colocalization rate of NT4 with EEA1” value in the data set on EEA1 (n = 14, SD ± 3) was determined as 33%. In addition, the “Pearson coefficient of NT4 with Rab7” value with Rab7 (after 15 min at 37 °C, n = 10, SD ± 0.03) is 0.33; with Rab7 (after 1 h at 37 °C, n = 10, SD ± 0.07) it was 0.49. Also, the “colocalization of NT4 with Rab7” value in the data set on Rab7 (after 15 min at 37 °C, n = 10, SD ± 4) was 19%; in the data set with Rab7 (after 1 h at 37 °C, n = 10, SD ± 11), 42%. Also, the “Pearson coefficient of NT4 with Rab11” value in the data set with Rab11 (n = 6, SD ± 0.039) is reported as 0.38. Also, in the data set with Rab11 (n = 6, SD ± 5.89), the “colocalization rate of NT4 with Rab11” value turned out to be 24%.
